According to paper doi:10.1101/2025.07.29.667540:
Results are given in words; binding and its absence hold for the method and conditions named. Binding seen in cells or lysates may run through a third protein.

The chains behind the UniProt entries cited, without tags or fusion partners.
UniProt P61081: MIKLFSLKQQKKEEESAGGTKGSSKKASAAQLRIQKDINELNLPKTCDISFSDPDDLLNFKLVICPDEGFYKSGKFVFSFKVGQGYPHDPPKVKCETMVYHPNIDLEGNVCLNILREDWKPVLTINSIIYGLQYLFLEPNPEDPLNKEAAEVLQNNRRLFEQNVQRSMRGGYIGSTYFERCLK
UniProt O75925: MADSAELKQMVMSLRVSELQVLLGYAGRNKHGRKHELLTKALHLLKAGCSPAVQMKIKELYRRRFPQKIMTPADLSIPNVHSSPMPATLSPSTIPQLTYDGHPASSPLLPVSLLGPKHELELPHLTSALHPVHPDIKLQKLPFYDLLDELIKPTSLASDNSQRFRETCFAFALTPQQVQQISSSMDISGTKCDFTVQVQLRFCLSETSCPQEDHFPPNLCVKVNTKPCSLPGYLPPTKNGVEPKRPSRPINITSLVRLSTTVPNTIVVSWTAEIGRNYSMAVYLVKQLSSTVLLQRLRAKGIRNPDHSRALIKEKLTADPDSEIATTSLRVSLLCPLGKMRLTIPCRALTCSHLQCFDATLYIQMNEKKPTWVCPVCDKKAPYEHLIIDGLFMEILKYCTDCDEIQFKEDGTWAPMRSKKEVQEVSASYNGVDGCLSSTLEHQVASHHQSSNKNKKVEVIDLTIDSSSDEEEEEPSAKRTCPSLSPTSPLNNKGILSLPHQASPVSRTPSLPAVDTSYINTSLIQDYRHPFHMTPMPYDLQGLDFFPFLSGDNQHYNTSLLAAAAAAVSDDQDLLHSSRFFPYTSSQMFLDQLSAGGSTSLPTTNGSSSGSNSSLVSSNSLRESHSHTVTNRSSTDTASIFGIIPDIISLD

Molecular target: CyPet-Ubc12 (UniProt P61081)
Experiment: FRET or BRET

“YPet-PIAS1 (from UniProt O75925 1-651) (enzyme)” was tested, and the binding was “no binding”.
